Test results taken from publication PMC8933458.
Results are given in words; binding and its absence hold for the method and conditions named. Binding seen in cells or lysates may run through a third protein. Some binding calls cover weakened binding; strength is not graded here.

Chains of the proteins cited; added tags and fusions are not shown.
UniProt Q14671: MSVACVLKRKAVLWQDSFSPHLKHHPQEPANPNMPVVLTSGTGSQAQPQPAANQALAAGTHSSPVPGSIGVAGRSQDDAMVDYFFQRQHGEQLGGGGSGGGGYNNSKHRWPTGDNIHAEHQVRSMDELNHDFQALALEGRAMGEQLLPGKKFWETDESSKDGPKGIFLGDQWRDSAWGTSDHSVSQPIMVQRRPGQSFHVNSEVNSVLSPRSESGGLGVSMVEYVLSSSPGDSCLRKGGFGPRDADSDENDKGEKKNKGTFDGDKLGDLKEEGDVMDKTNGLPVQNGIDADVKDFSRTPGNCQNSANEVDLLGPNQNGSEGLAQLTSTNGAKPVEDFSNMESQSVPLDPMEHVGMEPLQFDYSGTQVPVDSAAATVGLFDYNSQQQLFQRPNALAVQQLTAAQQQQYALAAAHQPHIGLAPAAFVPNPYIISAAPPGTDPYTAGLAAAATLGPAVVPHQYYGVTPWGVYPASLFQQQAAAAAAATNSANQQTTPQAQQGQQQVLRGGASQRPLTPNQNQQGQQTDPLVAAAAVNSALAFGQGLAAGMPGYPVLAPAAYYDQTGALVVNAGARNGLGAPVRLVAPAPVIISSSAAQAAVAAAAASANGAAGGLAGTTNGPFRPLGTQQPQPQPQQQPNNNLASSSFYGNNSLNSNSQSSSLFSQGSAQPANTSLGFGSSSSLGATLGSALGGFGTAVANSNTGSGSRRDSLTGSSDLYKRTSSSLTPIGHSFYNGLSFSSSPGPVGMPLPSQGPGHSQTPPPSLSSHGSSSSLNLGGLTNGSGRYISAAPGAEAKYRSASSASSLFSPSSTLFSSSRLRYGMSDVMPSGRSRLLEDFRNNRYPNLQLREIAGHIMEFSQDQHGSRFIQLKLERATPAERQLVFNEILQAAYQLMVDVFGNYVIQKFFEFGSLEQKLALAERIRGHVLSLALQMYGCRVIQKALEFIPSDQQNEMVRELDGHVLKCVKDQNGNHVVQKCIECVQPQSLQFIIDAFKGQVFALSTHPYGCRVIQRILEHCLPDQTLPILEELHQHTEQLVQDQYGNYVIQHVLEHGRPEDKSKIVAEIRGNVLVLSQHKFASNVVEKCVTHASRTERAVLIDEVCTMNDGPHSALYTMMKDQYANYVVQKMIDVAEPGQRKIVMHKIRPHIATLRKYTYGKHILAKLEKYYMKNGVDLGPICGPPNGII
UniProt Q8TB72: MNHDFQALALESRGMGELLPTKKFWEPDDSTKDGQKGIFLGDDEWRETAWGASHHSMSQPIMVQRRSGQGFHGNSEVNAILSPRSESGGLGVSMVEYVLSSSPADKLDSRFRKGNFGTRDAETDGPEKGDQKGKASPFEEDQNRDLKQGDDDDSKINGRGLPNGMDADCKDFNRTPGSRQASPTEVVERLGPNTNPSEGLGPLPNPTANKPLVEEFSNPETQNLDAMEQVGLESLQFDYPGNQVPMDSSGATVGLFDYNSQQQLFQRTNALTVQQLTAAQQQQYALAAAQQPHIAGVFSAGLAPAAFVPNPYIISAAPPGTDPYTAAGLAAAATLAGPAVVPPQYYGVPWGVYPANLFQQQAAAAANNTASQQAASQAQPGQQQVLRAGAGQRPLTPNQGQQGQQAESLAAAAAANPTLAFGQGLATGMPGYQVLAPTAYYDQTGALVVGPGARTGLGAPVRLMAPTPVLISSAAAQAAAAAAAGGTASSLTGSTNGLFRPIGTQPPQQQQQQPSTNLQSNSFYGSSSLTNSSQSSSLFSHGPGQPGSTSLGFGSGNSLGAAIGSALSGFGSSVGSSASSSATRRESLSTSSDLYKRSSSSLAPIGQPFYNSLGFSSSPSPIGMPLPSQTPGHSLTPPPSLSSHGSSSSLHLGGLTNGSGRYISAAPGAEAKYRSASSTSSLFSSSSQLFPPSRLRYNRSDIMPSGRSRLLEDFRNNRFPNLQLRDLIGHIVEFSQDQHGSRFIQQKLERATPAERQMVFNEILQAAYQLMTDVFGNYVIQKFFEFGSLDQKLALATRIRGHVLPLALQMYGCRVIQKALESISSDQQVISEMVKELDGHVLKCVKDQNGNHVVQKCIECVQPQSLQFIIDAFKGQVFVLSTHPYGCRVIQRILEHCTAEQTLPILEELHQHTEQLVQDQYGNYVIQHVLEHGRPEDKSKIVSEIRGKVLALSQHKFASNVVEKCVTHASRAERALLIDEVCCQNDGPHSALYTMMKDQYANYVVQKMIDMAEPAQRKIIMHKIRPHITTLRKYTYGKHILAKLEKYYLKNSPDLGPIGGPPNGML
UniProt A5YKK6: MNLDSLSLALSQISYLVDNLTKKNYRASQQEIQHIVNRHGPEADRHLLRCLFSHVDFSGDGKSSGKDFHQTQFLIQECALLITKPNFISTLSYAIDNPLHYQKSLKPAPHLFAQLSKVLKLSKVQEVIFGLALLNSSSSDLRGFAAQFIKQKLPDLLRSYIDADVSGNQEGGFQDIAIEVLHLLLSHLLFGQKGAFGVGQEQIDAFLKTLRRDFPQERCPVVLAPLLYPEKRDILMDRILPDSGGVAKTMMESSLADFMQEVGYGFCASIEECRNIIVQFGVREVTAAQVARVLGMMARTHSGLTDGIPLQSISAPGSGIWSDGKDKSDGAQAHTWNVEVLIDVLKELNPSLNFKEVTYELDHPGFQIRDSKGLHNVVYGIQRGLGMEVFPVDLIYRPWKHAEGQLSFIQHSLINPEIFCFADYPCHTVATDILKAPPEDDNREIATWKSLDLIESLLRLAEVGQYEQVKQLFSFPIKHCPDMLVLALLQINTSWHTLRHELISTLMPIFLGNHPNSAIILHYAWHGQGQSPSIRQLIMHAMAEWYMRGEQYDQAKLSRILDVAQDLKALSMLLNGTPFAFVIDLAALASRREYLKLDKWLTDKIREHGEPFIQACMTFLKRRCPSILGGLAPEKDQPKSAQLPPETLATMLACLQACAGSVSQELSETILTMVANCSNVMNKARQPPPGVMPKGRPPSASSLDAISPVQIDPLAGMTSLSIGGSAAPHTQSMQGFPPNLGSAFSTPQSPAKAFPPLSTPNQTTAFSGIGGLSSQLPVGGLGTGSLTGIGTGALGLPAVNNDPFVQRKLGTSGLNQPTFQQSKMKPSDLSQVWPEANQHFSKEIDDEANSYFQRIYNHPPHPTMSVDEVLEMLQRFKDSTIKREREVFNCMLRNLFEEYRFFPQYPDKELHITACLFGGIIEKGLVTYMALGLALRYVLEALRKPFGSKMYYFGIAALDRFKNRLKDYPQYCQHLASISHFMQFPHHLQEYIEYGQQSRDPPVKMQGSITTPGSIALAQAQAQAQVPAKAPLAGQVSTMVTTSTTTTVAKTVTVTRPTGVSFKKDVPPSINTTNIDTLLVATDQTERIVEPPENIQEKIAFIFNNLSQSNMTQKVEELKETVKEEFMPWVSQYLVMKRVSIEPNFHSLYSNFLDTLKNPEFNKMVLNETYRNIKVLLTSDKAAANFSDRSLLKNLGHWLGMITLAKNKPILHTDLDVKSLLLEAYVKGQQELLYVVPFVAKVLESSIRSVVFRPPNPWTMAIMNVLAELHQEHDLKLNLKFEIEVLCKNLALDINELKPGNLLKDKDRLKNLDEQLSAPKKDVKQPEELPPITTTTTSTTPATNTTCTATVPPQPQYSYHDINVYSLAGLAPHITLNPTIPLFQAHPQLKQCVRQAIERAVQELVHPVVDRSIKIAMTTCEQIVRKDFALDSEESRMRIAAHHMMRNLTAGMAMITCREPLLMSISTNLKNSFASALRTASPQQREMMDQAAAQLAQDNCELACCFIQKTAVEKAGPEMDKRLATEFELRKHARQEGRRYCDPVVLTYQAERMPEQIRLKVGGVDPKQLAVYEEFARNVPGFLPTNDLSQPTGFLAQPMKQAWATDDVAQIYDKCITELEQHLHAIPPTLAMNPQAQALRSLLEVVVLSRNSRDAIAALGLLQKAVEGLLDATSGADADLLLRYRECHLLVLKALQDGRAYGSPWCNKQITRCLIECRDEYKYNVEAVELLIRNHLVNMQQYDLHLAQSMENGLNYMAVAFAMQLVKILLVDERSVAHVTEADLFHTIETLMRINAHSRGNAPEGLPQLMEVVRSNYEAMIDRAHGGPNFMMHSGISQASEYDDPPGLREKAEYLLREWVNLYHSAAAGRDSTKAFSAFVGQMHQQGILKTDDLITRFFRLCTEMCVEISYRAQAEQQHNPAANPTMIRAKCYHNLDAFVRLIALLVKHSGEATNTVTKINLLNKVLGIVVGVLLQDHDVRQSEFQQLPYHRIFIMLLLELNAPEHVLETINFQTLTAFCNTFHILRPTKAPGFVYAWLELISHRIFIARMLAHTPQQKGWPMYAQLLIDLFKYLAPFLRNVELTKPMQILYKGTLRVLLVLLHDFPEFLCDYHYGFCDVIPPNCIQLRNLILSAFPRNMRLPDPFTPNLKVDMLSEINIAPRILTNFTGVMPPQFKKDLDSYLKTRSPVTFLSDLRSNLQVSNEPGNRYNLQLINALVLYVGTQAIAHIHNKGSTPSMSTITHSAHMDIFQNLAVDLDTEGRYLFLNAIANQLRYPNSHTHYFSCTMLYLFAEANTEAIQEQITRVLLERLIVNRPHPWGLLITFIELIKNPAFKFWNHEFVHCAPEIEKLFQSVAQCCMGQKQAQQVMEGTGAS

Experiments:
[1] = target: PUM1 (human (endogenous in human NPCs)) (UniProt Q14671); assay: proximity ligation; PLA in NPCs with or without PUM1/2 overexpression
[2] = target: PUM2 (human (endogenous in human NPCs)) (UniProt Q8TB72); assay: as above
[3] = target: PUM1 (human (endogenous in human NPCs)) (UniProt Q14671); assay: co-IP; co-immunoprecipitation from NPCs with or without PUM1/2 overexpression; which protein was precipitated is not told in the text shown
[4] = target: PUM2 (human (endogenous in human NPCs)) (UniProt Q8TB72); assay: as above

binding [1]: binds | binding [2]: binds | binding [3]: binds | binding [4]: binds
Substance: CNOT1 (from UniProt A5YKK6 1-2376)
